Data: article PMC11016227
No constants are given. Whether binding was seen depends on the method and setting. Binding seen in cells or lysates may run through a third protein. Some entries that bind do so weakly or less than the wild type.

The chains behind the UniProt entries cited, without tags or fusion partners. Residues count along the entry.
UniProt Q9UM47, residues 40-2321: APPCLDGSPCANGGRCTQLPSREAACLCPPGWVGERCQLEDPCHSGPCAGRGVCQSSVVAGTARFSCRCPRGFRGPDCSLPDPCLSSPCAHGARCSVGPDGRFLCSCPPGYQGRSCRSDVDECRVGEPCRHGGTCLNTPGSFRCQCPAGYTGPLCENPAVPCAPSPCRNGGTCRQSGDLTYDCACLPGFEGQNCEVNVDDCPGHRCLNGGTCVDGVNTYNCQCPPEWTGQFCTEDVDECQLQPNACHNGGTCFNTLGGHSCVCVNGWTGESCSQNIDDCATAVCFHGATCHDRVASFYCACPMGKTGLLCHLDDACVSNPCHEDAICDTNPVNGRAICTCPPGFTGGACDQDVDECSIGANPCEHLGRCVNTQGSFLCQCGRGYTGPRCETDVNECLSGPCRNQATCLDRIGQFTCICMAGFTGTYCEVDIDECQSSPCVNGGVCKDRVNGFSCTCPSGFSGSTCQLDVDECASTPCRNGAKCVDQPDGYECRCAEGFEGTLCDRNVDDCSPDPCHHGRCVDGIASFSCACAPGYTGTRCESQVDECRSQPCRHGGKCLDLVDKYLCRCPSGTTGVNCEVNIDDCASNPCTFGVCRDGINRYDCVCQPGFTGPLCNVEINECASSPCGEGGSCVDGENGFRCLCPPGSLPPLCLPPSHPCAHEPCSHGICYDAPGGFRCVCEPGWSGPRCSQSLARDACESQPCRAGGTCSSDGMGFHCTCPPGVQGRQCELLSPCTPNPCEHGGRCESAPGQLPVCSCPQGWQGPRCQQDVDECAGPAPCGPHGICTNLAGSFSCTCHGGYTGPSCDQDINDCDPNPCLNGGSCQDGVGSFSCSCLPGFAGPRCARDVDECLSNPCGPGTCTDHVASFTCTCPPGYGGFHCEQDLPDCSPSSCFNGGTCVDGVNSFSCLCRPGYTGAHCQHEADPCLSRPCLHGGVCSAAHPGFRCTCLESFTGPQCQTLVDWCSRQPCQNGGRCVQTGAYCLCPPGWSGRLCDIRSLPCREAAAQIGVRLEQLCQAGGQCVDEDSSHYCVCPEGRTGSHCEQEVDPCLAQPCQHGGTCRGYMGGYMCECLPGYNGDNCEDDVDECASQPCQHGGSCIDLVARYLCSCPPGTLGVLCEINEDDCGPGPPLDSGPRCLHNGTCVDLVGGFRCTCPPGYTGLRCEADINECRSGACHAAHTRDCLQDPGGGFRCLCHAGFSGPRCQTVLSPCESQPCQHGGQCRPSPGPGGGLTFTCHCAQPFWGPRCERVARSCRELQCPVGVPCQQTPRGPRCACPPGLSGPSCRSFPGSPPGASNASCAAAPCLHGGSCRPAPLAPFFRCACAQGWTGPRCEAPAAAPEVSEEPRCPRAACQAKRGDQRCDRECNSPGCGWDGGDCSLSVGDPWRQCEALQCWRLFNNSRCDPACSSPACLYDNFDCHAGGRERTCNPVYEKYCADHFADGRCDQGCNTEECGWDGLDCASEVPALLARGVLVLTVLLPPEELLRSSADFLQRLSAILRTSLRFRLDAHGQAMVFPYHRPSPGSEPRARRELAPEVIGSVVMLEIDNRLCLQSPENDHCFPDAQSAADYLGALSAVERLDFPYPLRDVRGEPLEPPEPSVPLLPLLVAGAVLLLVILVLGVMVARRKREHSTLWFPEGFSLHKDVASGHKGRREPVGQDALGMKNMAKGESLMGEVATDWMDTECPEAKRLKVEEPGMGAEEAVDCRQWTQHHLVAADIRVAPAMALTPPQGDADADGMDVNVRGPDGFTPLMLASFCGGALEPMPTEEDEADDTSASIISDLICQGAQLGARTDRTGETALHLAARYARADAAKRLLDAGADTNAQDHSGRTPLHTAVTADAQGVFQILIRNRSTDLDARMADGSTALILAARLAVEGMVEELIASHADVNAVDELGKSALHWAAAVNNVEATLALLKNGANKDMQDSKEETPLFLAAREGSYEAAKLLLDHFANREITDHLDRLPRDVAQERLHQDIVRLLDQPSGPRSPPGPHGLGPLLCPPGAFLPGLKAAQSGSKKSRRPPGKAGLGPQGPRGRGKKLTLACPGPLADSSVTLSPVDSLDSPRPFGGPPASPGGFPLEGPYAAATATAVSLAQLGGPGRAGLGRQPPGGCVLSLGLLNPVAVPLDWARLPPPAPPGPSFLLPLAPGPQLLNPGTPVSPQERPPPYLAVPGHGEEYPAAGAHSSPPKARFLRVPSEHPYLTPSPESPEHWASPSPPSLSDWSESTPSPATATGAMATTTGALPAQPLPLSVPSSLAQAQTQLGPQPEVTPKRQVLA
UniProt P78504, residues 34-1218: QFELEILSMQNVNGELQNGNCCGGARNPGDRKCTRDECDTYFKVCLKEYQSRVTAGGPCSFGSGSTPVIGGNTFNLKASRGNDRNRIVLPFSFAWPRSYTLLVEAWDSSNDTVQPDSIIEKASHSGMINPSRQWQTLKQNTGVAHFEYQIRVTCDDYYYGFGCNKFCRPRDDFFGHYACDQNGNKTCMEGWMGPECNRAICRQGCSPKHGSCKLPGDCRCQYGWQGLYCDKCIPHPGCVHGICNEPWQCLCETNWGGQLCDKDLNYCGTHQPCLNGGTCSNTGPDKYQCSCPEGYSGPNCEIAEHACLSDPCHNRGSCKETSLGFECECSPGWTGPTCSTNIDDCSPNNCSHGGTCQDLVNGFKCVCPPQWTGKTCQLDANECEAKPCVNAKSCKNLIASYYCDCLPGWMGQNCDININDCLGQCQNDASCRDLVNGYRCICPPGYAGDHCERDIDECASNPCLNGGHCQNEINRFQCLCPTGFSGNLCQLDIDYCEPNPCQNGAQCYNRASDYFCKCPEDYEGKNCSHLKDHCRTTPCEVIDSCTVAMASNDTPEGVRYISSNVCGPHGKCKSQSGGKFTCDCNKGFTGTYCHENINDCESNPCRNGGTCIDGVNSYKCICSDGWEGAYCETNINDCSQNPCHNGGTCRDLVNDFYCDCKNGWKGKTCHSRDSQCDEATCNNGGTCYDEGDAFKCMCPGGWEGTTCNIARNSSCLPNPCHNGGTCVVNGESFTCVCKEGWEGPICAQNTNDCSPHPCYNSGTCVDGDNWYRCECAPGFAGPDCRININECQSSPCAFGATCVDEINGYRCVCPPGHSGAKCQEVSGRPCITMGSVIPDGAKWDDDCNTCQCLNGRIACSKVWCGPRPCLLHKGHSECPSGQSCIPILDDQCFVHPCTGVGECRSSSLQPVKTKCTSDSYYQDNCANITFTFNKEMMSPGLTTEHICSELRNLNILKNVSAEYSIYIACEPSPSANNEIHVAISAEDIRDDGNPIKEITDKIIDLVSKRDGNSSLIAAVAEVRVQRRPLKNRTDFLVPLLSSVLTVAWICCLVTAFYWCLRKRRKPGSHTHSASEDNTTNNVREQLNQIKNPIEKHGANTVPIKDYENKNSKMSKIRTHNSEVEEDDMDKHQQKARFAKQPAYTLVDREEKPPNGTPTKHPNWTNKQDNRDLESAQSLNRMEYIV

Target: Notch3 receptor (human (endogenous in SKOV3 and OAW42)) (UniProt Q9UM47)
Test: proximity ligation; SKOV3 and OAW42 cells, control or treated 24 h with 0.25 mg/ml recombinant COMP; fixed with 4% paraformaldehyde, permeabilised with 0.1% Triton X-100; primary antibodies to Notch3 and Jagged1, NaveniFlex GM; spots per cell counted by confocal microscopy

binding: binds
Substance: Jagged1 ligand (from UniProt P78504 34-1218)
